Assay results published in article PMC12208836.
These are yes or no findings as the source states them, for the method shown. Binding seen in cells or lysates may run through a third protein. Some entries that bind do so weakly or less than the wild type.

Sequences of proteins named here, by UniProt entry; tags and fusion partners are left off.
UniProt O95235: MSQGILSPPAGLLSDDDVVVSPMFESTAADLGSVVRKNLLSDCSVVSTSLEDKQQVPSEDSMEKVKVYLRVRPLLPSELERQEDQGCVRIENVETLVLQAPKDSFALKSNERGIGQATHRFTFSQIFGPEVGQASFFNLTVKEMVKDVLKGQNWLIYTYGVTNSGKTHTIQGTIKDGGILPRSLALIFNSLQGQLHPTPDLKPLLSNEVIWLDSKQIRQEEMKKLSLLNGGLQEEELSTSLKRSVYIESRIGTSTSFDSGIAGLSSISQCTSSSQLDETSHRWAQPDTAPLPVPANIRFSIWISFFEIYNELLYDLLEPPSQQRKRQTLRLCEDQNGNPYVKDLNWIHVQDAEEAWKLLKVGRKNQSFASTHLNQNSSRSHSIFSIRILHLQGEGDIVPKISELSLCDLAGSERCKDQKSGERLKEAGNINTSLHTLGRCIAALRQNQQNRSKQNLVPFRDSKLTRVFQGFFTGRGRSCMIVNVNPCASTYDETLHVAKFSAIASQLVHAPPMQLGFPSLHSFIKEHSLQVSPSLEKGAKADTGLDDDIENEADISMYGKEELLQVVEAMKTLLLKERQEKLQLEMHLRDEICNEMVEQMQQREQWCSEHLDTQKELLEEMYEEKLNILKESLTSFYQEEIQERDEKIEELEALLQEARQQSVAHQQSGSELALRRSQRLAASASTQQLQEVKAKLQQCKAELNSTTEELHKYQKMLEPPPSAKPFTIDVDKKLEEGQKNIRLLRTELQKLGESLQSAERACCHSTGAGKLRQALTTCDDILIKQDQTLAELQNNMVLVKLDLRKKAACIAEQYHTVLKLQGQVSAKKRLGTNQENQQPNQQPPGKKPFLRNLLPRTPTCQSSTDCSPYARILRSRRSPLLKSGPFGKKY

Biological target: T1, DEP domain containing 1 (DEPDC1) (human (endogenous in liposarcoma cells)) (UniProt Q5TB30)
T1 sequence: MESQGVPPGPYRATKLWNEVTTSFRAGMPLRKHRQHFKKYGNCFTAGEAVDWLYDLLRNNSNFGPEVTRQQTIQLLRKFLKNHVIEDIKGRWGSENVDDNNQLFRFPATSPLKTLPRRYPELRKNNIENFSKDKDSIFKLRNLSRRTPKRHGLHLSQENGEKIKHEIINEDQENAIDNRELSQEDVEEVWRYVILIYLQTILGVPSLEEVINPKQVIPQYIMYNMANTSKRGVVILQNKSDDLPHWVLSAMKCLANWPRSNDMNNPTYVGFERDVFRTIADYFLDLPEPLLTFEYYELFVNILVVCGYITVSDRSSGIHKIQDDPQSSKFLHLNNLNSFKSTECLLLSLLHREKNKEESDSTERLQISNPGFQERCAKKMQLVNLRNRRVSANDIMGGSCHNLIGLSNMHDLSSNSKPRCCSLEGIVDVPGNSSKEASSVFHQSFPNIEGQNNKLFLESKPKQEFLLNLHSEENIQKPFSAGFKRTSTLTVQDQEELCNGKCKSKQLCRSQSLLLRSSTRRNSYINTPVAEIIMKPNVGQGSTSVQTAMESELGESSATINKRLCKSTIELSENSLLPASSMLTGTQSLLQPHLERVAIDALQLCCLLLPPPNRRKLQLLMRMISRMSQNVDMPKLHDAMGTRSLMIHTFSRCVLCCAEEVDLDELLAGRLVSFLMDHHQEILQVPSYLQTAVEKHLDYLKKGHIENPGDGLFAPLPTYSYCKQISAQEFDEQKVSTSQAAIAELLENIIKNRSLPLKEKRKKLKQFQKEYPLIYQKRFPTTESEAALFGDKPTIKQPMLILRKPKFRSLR
Experiment: co-IP; cells supernatant of liposarcoma cells bound to anti-DEPDC1 antibody (abcam, ab197246) or normal rabbit IgG on a rotating shaker at 4°C; kit (Absin); washed with IP washing buffer; KIF20A identified in the precipitate

binding: binds
Substance: Kinesin family member 20A (KIF20A) (from UniProt O95235 1-890)
